In PubChem BioAssay AID2685 (National Center for Advancing Translational Sciences (NCATS), 2010):
The list shows a part of the results. Further columns of the screen follow, without active or inactive calls. Compounds called inactive in the main read-out are mostly missing here. Words in brackets tell the shape of the fitted curve; partial curves, single points and poor fits give uncertain potencies.

Assay: qHTS Assay for Lipid Storage Modulators in Drosophila S3 Cells;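 as to cell number change: cells counted by Cell Tracker Red CMTPX staining in the red channel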
Conditions: BODIPY lipid droplet fluorescence, 18-24 h; for cell number change: measured here: cell count max response, cells fed with added oleic acid
In short: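 Drosophila S3 cells got compounds at several concentrations plus oleic acid (400 uM solution). Laser-scanning cytometry with 488 nm excitation read lipid droplets at 500-530 nm and cells at 575-640 nm. Percent activity was relative to 20 uM Triacsin C.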

[1] = measured here: lipid fluorescence (Fed channel) AC50, cells fed with added oleic acid
[2] = measured here: cell number channel AC50, cells fed with added oleic acid

SMILES	cell number change	AC50 [1]	AC50 [2]
CC(=O)Nc1ccc(S(=O)(=O)Nc2nc3ccccc3nc2Nc2ccc(O)cc2)cc1	-2.13%	6.51 µM [falling, single point]	
CC(C)c1ccc(N=C2NN=C(c3cccs3)CS2)cc1	40.7%		25.9 µM [rising, single point]
COc1cccc2cc(C(=O)NCc3ccc(F)cc3)c(=N)oc12	15.3%		
N#CCC(=O)NNC(=S)NC(=O)C(c1ccccc1)c1ccccc1	-16.6%	0.206 µM [falling, full curve, poor fit]	
O=C(CSC1=NS(=O)(=O)c2ccccc2N1)Nc1ccccc1F		7.31 µM [falling, partial curve]	
Cc1nc(-c2ccc(S(=O)(=O)N3CCN(c4ccccc4)CC3)cc2)co1	24.2%		
Cc1onc(-c2ccccc2Cl)c1C(=O)N1CCCCC1C(=O)O (stereo not drawn)	2.84%	6.51 µM [falling, single point]	
O=C(COC(=O)c1ccc(NS(=O)(=O)c2ccc3c(c2)OCCO3)cc1)NC1CCS(=O)(=O)C1 (stereo not drawn)	-22.1%	4.61 µM [falling, single point]	
COc1ccccc1S(=O)(=O)Nc1cccc(-c2nnc3n2CCCCC3)c1	9.93%	16.4 µM [falling, single point]	
Cc1ccccc1NC(=S)N1CCOCC1	1.14%	0.116 µM [falling, full curve, poor fit]	
COc1cc2c(cc1NS(=O)(=O)N1CCCCC1)oc1ccccc12	12.2%		
Cc1ccc2c(c1)c1n[nH]c(=S)nc1n2CCc1ccccc1	15.6%	29.1 µM [rising, single point]	
COc1ccc(CN(C)Cc2nc3cc(OC)c(OC)cc3c(=O)[nH]2)c(OC)c1	139%		29.1 µM [rising, partial curve]
FC(F)(F)c1cccc(OCCN2CCN(Cc3ccccc3)CC2)c1	-53.7%	13 µM [falling, partial curve]	14.6 µM [falling, partial curve]
COc1ccc(C(=O)N2CC=C(c3ccccc3)CC2)cc1S(=O)(=O)N1CCOCC1		25.9 µM [rising, single point]	
CC(c1ccco1)N(C(=O)c1cccc(Br)c1)c1ccccn1 (stereo not drawn)	14.3%		
O=C1OC(Nc2ncccn2)c2ccccc21 (stereo not drawn)	-46.2%	0.517 µM [falling, full curve]	29.1 µM [falling, single point]
N#CC(C(=O)NC1CCCCC1)=C1CCCCCC1	-10.5%	0.82 µM [falling, partial curve, poor fit]	0.82 µM [falling, full curve, poor fit]

Quoted from the listing.
AC50 [2], CC(C)c1ccc(N=C2NN=C(c3cccs3)CS2)cc1 reads 25.9 µM [rising, single point]
AC50 [1], FC(F)(F)c1cccc(OCCN2CCN(Cc3ccccc3)CC2)c1 reads 13 µM [falling, partial curve]
